Laboratory results reported in the supplement of paper PMC10849652.
The list shows a part of the results.

Sequences of proteins named here, by UniProt entry; tags and fusion partners are left off. A change or cut given only in a name is not applied to a line headed by its entry.
UniProt P47736: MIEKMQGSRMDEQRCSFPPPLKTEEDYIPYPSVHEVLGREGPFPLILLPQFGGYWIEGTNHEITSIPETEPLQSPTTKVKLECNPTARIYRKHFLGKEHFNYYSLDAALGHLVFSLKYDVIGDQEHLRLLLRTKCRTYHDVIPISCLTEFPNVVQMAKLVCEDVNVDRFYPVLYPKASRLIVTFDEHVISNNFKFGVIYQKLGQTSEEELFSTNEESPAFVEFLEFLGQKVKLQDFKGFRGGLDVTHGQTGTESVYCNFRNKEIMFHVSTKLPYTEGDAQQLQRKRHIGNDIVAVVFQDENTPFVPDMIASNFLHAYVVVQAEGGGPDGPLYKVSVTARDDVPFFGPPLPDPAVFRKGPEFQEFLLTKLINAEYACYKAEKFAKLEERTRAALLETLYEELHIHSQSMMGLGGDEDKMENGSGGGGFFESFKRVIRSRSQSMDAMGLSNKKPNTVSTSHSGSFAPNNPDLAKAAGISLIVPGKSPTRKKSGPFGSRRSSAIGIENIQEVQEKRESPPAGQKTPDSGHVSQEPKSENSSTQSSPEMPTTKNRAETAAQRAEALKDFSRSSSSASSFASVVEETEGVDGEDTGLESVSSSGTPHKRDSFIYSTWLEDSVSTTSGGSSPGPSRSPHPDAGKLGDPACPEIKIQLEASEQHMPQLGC
UniProt Q13905: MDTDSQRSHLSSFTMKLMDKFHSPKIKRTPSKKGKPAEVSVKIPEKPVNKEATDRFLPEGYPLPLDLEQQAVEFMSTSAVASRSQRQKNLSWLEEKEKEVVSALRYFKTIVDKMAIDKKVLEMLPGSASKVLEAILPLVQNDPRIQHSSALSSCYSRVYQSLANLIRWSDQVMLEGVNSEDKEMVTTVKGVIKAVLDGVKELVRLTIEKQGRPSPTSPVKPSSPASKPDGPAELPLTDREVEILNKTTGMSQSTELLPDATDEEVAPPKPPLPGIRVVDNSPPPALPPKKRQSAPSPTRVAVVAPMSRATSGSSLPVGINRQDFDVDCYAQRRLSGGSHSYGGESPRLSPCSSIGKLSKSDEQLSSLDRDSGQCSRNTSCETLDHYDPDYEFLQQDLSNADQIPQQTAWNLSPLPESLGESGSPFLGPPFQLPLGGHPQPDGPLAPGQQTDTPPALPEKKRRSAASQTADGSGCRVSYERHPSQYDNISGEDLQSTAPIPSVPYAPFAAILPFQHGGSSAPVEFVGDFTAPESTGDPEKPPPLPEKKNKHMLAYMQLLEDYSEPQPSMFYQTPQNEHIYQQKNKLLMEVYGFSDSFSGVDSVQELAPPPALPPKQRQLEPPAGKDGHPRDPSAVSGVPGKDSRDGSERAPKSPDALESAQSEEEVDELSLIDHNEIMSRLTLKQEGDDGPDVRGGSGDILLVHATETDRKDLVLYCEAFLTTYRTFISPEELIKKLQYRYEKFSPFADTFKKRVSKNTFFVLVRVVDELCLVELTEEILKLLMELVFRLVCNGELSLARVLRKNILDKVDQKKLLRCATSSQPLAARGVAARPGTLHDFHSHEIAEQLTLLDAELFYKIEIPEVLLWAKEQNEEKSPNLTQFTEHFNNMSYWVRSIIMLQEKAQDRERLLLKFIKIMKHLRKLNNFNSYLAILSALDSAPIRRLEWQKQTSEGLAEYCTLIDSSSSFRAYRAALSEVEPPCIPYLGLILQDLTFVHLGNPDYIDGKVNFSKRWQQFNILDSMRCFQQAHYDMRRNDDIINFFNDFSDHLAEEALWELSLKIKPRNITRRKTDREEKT
UniProt Q16576, whole entry, looked up: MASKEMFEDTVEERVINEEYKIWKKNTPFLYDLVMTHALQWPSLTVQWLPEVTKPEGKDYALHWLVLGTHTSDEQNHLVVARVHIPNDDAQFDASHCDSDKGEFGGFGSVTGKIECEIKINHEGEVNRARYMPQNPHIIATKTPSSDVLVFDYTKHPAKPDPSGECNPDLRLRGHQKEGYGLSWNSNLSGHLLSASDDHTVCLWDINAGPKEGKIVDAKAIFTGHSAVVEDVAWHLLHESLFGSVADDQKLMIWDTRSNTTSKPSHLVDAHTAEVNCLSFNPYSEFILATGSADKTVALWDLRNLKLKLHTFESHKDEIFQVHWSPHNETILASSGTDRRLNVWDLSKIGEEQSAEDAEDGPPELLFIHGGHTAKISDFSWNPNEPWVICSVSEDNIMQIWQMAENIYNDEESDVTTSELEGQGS
UniProt P61020: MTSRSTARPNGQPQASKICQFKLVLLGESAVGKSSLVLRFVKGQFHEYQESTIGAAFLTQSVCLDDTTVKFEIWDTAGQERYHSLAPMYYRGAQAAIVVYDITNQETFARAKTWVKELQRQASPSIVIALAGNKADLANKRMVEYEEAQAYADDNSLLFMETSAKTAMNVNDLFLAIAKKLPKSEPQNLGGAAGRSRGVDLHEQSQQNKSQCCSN
UniProt Q13637: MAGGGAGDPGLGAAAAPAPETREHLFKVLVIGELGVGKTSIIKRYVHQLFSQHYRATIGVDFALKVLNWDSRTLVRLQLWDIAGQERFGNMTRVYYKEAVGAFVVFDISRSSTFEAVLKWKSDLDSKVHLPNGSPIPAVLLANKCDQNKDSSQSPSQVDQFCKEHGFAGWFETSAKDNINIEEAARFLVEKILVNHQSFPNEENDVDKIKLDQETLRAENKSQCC
UniProt P11234: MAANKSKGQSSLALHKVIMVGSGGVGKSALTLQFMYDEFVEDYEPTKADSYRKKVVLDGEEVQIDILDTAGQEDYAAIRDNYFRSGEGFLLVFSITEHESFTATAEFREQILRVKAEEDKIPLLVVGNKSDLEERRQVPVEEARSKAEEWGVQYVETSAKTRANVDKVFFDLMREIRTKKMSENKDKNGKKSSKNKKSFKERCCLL
UniProt Q13636: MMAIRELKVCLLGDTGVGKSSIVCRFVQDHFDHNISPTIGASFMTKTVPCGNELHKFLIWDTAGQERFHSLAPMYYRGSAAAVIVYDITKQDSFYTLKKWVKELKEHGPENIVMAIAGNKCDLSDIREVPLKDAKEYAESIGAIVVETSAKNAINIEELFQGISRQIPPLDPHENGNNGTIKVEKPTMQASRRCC
UniProt Q15907: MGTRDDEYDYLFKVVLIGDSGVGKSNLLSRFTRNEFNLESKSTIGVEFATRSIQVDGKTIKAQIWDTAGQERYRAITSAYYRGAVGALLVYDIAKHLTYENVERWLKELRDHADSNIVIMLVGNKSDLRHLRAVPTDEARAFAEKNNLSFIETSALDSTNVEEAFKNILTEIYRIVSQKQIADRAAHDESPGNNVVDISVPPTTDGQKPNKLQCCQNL
UniProt Q5HYI8: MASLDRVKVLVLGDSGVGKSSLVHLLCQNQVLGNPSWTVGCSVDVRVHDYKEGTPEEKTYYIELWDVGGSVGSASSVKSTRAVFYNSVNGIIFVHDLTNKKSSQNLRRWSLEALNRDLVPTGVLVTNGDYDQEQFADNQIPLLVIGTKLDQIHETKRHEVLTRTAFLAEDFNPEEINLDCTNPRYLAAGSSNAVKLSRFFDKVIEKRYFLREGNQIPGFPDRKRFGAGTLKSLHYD
UniProt O00194: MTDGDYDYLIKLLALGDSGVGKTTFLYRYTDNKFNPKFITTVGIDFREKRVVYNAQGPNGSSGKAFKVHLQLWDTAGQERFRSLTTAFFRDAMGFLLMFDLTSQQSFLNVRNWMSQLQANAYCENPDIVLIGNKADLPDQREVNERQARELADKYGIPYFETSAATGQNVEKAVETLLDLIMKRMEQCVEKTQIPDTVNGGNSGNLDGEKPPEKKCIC
UniProt Q9NP72: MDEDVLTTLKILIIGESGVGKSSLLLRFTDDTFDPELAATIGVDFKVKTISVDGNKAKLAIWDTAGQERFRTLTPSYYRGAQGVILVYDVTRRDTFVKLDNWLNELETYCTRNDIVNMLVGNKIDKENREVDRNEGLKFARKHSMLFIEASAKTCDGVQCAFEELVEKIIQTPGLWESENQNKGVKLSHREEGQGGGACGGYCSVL
UniProt P52306: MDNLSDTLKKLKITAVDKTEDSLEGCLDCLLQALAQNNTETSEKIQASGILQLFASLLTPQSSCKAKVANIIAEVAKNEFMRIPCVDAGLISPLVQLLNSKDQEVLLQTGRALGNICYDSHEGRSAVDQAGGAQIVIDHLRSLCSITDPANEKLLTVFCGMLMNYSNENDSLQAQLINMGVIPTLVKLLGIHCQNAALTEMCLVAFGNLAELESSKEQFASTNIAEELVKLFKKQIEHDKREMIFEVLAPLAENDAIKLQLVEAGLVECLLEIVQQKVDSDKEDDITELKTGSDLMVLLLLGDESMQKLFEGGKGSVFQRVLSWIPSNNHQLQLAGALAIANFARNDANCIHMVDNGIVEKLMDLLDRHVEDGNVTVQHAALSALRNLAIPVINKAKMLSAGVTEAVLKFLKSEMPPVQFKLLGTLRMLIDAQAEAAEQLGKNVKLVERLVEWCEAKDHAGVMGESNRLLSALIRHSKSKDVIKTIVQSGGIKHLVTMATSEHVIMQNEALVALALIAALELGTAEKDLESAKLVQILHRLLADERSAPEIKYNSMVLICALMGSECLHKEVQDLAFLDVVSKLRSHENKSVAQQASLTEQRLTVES
UniProt P51149, whole entry, looked up: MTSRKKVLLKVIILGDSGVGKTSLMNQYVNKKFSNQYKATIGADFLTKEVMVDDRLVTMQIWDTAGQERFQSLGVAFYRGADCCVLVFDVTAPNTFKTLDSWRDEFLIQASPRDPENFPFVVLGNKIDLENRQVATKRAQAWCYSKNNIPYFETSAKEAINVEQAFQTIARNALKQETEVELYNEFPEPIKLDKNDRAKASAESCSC
UniProt Q9NRW1: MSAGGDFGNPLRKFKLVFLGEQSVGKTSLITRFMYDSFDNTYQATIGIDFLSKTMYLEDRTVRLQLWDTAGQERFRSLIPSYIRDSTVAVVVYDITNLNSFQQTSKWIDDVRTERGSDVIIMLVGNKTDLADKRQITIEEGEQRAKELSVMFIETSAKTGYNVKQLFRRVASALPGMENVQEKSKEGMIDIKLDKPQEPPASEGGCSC
UniProt O95716: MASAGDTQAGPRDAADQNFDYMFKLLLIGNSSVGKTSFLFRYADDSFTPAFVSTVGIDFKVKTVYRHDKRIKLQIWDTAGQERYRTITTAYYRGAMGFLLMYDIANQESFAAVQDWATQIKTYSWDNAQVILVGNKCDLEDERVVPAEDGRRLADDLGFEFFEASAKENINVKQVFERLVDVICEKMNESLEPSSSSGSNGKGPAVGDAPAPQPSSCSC
UniProt Q9NTZ6: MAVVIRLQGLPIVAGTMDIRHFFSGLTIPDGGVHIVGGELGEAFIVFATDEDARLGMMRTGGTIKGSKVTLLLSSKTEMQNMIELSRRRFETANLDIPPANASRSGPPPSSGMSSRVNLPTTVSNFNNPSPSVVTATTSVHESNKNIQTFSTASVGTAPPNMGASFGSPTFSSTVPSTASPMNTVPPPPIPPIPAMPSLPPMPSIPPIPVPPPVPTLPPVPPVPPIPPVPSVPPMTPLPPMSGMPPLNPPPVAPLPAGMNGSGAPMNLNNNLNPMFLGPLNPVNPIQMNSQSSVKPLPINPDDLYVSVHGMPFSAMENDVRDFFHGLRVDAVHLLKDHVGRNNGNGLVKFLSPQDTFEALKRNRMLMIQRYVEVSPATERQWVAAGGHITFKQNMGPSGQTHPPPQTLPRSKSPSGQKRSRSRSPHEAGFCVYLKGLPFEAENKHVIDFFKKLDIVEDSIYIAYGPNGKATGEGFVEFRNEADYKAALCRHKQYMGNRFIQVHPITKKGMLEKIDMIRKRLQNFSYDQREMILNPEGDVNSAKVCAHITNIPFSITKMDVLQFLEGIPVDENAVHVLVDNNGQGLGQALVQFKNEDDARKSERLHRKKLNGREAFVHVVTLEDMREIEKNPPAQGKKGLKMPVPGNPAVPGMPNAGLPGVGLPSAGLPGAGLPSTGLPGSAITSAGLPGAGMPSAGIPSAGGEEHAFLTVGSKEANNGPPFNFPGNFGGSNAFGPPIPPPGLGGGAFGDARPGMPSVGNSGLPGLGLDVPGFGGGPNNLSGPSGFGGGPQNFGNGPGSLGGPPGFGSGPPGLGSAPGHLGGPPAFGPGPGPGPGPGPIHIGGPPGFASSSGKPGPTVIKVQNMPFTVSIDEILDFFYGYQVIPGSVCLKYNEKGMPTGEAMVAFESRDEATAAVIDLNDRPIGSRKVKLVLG
UniProt Q9NS91, whole entry, looked up: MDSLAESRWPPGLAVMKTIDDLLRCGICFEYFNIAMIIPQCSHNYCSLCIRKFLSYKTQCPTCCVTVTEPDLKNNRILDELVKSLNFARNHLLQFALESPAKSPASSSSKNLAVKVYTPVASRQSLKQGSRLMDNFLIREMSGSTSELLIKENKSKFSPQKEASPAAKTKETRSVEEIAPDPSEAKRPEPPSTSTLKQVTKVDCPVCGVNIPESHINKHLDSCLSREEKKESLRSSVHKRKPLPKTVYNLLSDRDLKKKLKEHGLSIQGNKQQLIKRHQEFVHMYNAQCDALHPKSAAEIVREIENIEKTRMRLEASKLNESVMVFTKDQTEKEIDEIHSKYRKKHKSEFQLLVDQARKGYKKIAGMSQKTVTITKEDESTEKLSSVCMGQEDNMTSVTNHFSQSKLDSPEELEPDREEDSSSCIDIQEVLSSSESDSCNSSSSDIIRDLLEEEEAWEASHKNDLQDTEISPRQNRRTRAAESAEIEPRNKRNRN

Key:
Test in all cases: log2 fold change, soluble protein after heating vs DMSO (PISA); higher = thermal stabilisation; K562 cells, 10 uM, 30 min; active = over 0.2 and 3.5 SD of the protein, either way, in both replicates (recomputed)
[1] = compound: C1=CC=C(C=C1)[C@H](COC2=CC3=C(C=C2)NC(=O)N3)NC(=O)C4=CC=CN(C4=O)CC5=CC(=C(C=C5)F)F
Summary of the method: (§1)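 Soluble protein was quantified by TMTpro 16plex LC-MS/MS after channel sums were equalised. It was obtained as the supernatant after 21,000xg for 90 min from pooled aliquots of K562 cells (2×10^6 cells/mL, 10 μM compound, 30 min) heated for 3 min across 48°C-58°C and extracted in PBS with 0.5% NP-40 at 4°C. Thermal stability values are relative to control samples and come from duplicates. They are given as log2 fold changes.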

[2] = compound: CC1=C(SC2=C1C(=N[C@H](C3=NN=C(N32)C)CC(=O)N)C4=CC=C(C=C4)Cl)C
Summary of the method: as §1

[3] = compound: CC1=C2C(=CC=C1)N=C(N(C2=O)C3=CC=CC=C3C)CN4C=NC5=C(N=CN=C54)N
Summary of the method: as §1

[4] = compound: Cc1sc2c(c1C)C(c1ccc(Cl)cc1)=N[C@@H](CC(=O)OC(C)(C)C)c1nnc(C)n1-2
Summary of the method: as §1

[5] = compound: c1ccc([C@@H]2C[C@H]2NC2CCNCC2)cc1
Summary of the method: as §1

Measured: log2 fold change

RAB8A isoform 2 (UniProt P61006)
inactive: [1] -0.005 | [2] 0.005 | [3] -0.041 | [4] -0.002 | [5] 0.022

RANBP17 (UniProt Q9H2T7)
inactive: [1] -0.032 | [2] 0.132 | [3] 0.04 | [4] 0.035 | [5] -0.254

RACK1 (UniProt D6RF23)
inactive: [1] -0.046 | [2] -0.008 | [3] 0.138 | [4] 0.105 | [5] 0.065

RAP1GAP isoform 4 (UniProt P47736)
inactive: [1] -0.07 | [2] 0.098 | [3] 0.047 | [4] 0.039 | [5] 0.06

RABGAP1 (UniProt Q9Y3P9)
inactive: [1] -0.026 | [2] 0.054 | [3] 0.072 | [4] 0.022 | [5] 0.004

RAB14 (UniProt P61106)
inactive: [1] 0.032 | [2] 0.072 | [3] 0.064 | [4] -0.023 | [5] -0.016

RALA (UniProt P11233)
inactive: [1] 0.021 | [2] 0.046 | [3] 0.027 | [4] -0.016 | [5] 0.069

RAP1A (UniProt P62834)
inactive: [1] -0.016 | [2] 0.024 | [3] -0.003 | [4] -0.024 | [5] -0.004

RAD9A (UniProt Q99638)
inactive: [1] -0.004 | [2] 0.031 | [3] -0.071 | [4] -0.03 | [5] -0.018

RAPGEF1 isoform 3 (UniProt Q13905)
inactive: [1] -0.188

RBBP7 (UniProt Q16576)
inactive: [1] 0.024

RAI1 (UniProt Q7Z5J4)
inactive: [1] 0.213

RAB5B (UniProt P61020)
inactive: [1] -0.005 | [2] -0.029 | [3] -0.025 | [4] -0.031 | [5] 0.022

RBL1 (UniProt P28749)
inactive: [1] 0.157

RAB19 isoform 2 (UniProt A4D1S5)
inactive: [1] 0.136

RAB32 (UniProt Q13637)
inactive: [1] -0.058 | [2] 0.016 | [3] -0.037 | [4] -0.053 | [5] -0.005

RABGGTA (UniProt Q92696)
inactive: [1] -0.105 | [2] 0.084 | [3] 0.035 | [4] 0.014 | [5] -0.024

RALB isoform 2 (UniProt P11234)
inactive: [1] 0.004 | [2] 0.041 | [3] 0.019 | [4] -0.038 | [5] 0.015

RBM33 (UniProt Q96EV2)
inactive: [1] 0.002 | [2] -0.018 | [3] 0.029 | [4] -0.004 | [5] 0.012

RAB31 (UniProt Q13636)
inactive: [1] -0.008 | [2] -0.018 | [3] 0.017 | [4] -0.029 | [5] 0.012

RAB11B (UniProt Q15907)
inactive: [1] 0.02 | [2] -0.023 | [3] -0.085 | [4] 0.057 | [5] 0.077

RBM25 (UniProt P49756)
inactive: [1] -0.025 | [2] 0 | [3] 0.005 | [4] 0.051 | [5] 0.112

RAB9A (UniProt P51151)
inactive: [1] 0.024 | [2] 0.088 | [3] 0.065 | [4] -0.04 | [5] 0.001

RAPGEF2, A0A2R8YGD3
inactive: [1] 0.384 | [2] -0.034 | [3] 0.158 | [4] -0.048 | [5] 0.036

RAD51 (UniProt Q06609)
inactive: [1] -0.006 | [2] 0.142 | [3] -0.037 | [4] 0 | [5] -0.053

RAB6A isoform 2 (UniProt P20340)
inactive: [1] 0.007 | [2] 0.026 | [3] 0.037 | [4] 0 | [5] 0.014

RABGGTB (UniProt P53611)
inactive: [1] -0.138 | [2] 0.112 | [3] -0.021 | [4] -0.04 | [5] -0.005

RANGAP1 (UniProt P46060)
inactive: [1] -0.051 | [2] 0.034 | [3] 0.031 | [4] -0.011 | [5] 0

RBBP5 (UniProt Q15291)
inactive: [1] 0.044 | [2] -0.016 | [3] -0.023 | [4] -0.008 | [5] 0.04

RARS (UniProt P54136)
inactive: [1] -0.057 | [2] -0.081 | [3] -0.02 | [4] 0.169 | [5] 0.024

RANBP1 (UniProt P43487)
inactive: [1] -0.048 | [2] -0.009 | [3] -0.036 | [4] 0.011 | [5] -0.008

RANBP3 (UniProt Q9H6Z4)
inactive: [1] 0.023 | [2] 0.024 | [3] -0.017 | [4] -0.026 | [5] 0.044

RABL3 (UniProt Q5HYI8)
inactive: [1] 0 | [2] 0.033 | [3] 0.034 | [4] -0.033 | [5] -0.01

RAB27B (UniProt O00194)
inactive: [1] 0.019 | [2] 0.063 | [3] 0.046 | [4] 0.093 | [5] 0.128

RAB18 (UniProt Q9NP72)
inactive: [1] 0.034 | [2] -0.03 | [3] 0.001 | [4] -0.003 | [5] 0.036

Retrieved one by one from the list above, 4 records:
RAP1A (UniProt P62834)
inactive: [1] -0.016 | [2] 0.024 | [3] -0.003 | [4] -0.024 | [5] -0.004

RAD51 (UniProt Q06609)
inactive: [1] -0.006 | [2] 0.142 | [3] -0.037 | [4] 0 | [5] -0.053

RABGGTA (UniProt Q92696)
inactive: [1] -0.105 | [2] 0.084 | [3] 0.035 | [4] 0.014 | [5] -0.024

RBBP5 (UniProt Q15291)
inactive: [1] 0.044 | [2] -0.016 | [3] -0.023 | [4] -0.008 | [5] 0.04

The results go on:

RAD23B (UniProt P54727)
inactive: [1] 0.016 | [2] -0.002 | [3] -0.008 | [4] 0.027 | [5] -0.008

RAB11A (UniProt P62491)
inactive: [1] 0.01 | [2] 0.076 | [3] 0.194 | [4] -0.022 | [5] 0.009

RAB2B (UniProt Q8WUD1)
inactive: [1] -0.001 | [2] 0.033 | [3] 0.03 | [4] -0.035 | [5] 0.017

RAB3IL1 (UniProt Q8TBN0)
inactive: [1] 0.018 | [2] -0.013 | [3] 0.078 | [4] -0.03 | [5] -0.076

RAP1GDS1 isoform 5 (UniProt P52306)
inactive: [1] -0.093 | [2] -0.01 | [3] 0.119 | [4] -0.001 | [5] -0.009

RABEP1 (UniProt Q15276)
inactive: [1] 0.025 | [2] 0.065 | [3] 0.058 | [4] -0.004 | [5] 0.006

RAB7A (UniProt P51149)
inactive: [1] 0.035 | [2] 0.004 | [3] -0.019 | [4] 0.002 | [5] 0.009

RAN (UniProt P62826)
inactive: [1] 0.006 | [2] -0.024 | [3] -0.013 | [4] 0.034 | [5] 0.037

RAB6B (UniProt Q9NRW1)
inactive: [1] 0.036 | [2] -0.017 | [3] 0.03 | [4] -0.032 | [5] -0.01

RAB3D (UniProt O95716)
inactive: [1] 0.023 | [2] -0.105 | [3] 0.007 | [4] -0.082 | [5] 0.201

RAD21 (UniProt O60216)
inactive: [1] -0.008 | [2] 0.008 | [3] 0.021 | [4] -0.014 | [5] -0.009

RBM12 (UniProt Q9NTZ6)
inactive: [1] -0.039 | [2] 0.023 | [3] 0.077 | [4] -0.064 | [5] -0.006

RACK1 (UniProt P63244)
inactive: [1] 0.014 | [2] 0.023 | [3] -0.01 | [4] -0.016 | [5] -0.047

RAP1B (UniProt F5GZG1)
inactive: [1] 0.005 | [2] 0.102 | [3] 0.012 | [4] 0.013 | [5] -0.02

RAPGEF5, A0A590UJR0
inactive: [1] -0.026 | [2] -0.558 | [3] 0.134 | [4] 0.107 | [5] -0.274

RALGPS2 (UniProt Q86X27)
inactive: [1] -0.069 | [2] 0.073 | [3] -0.093 | [4] 0.116 | [5] -0.01

RAVER1 (UniProt E9PAU2)
inactive: [1] -0.138 | [2] -0.204 | [3] 0.283 | [4] -0.19 | [5] 0.053

RAD18 (UniProt Q9NS91)
inactive: [1] -0.09 | [2] 0.035 | [3] 0.291 | [4] -0.023 | [5] 0.007

RAI14 isoform 2 (UniProt Q9P0K7)
inactive: [1] 0.042 | [2] 0.121 | [3] 0.136 | [4] 0.198 | [5] 0.123

RABGEF1 isoform 3 (UniProt Q9UJ41)
inactive: [1] 0.018 | [2] -0.008 | [3] 0.039 | [4] 0.036 | [5] -0.009

RAB10 (UniProt P61026)
inactive: [1] 0.022 | [2] 0.001 | [3] 0.027 | [4] 0.019 | [5] -0.015
